These results are taken from publication doi:10.1101/216713.

Protein sequences, listed by entry. Tags and fused reporters are not part of them.
UniProt P40160: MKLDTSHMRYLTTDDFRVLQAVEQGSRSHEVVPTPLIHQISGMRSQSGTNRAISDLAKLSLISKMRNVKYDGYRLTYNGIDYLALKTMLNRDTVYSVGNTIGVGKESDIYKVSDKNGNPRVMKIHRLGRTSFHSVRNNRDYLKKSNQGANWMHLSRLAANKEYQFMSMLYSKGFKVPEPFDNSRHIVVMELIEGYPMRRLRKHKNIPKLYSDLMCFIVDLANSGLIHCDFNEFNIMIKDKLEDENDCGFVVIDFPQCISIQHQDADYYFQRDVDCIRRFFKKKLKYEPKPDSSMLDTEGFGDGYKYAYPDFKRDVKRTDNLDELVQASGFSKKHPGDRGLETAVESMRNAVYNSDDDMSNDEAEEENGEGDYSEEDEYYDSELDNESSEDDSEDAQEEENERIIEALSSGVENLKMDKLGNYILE
UniProt P0CX29: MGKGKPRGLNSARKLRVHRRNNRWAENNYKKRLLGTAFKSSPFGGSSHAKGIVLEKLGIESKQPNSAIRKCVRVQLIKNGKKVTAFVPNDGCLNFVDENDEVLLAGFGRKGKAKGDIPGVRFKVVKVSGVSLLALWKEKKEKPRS

Assay in all cases: cryo-EM structure
Test [1] concerns the target T1, ribosomal protein uS13 (S. cerevisiae (endogenous in the yeast strain)) (UniProt P0CX55).
T1 sequence: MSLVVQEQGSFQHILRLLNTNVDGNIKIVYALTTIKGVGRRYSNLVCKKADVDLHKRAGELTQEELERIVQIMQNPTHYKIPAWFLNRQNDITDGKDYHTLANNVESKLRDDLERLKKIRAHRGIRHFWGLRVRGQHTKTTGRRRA

The target in test [2] is T2, ribosomal protein uS19 (S. cerevisiae (endogenous in the yeast strain)) (UniProt Q01855).
T2 sequence: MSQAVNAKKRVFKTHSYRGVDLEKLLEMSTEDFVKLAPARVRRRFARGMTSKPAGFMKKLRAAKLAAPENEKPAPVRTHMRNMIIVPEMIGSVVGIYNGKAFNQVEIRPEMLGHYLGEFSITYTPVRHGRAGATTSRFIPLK

The target in test [3] is T3, ribosomal protein uS3 (S. cerevisiae (endogenous in the yeast strain)), P05750.
T3 chain: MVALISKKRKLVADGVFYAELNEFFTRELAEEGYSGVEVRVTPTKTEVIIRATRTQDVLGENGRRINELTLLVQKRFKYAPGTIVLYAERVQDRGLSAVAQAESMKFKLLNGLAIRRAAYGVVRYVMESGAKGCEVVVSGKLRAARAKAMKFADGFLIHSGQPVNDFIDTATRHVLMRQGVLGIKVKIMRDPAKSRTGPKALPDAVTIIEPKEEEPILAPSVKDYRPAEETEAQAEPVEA
The conditions noted are these: remark: other sources report otherwise.

Test [4] concerns the target T4, Enp1 (S. cerevisiae (endogenous in the yeast strain)) (UniProt P38333).
T4 sequence: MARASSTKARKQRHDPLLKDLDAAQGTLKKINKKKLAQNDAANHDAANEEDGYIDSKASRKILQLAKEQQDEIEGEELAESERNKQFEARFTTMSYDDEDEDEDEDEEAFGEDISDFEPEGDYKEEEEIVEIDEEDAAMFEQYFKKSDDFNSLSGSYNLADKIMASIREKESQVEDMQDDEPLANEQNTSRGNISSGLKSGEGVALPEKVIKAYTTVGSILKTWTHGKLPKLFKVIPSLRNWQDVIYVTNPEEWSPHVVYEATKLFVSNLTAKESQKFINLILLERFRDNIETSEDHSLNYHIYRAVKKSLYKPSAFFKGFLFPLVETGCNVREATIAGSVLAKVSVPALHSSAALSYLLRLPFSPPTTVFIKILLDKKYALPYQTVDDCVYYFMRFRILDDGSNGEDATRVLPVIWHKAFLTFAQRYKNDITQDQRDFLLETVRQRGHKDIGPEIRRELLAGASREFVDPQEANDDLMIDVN

The target in test [5] is Rio2 (S. cerevisiae (endogenous in the yeast strain)) (UniProt P40160).
Test [6] has as its target ribosomal protein uS12 (S. cerevisiae (endogenous in the yeast strain)) (UniProt P0CX29).
The target in test [7] is T1, ribosomal protein uS13 (S. cerevisiae (endogenous in the yeast strain)). The source holds these as a separate data set.
Test [8] deals with T2, ribosomal protein uS19 (S. cerevisiae (endogenous in the yeast strain)). This is another data set of the same source.

Read-outs that look alike come from different tables or passages of the source. Results are given in words; binding and its absence hold for the method and conditions named. Some binding calls cover weakened binding; strength is not graded here.

As to “Rio2 (from UniProt P40160 1-425) (enzyme)”, the binding result in test [1] and in test [2] was “binds” throughout.

B1: Enp1, P38333 1-483 (protein)
chain: T4 sequence
Take B1: the binding result in test [3] is recorded as “binds”.

B2: Ltv1 (protein, UniProt P34078 1-463)
chain: MSKKFSSKNSQRYVVVHRPHDDPSFYDTDASAHVLVPVSNPNKTSPEADLRKKDVSSTKPKGRRAHVGEAALYGINFDDSEYDYTQHLKPIGLDPENSIFIASKGNEQKVEKKNIEDLFIEPKYRRDEIEKDDALPVFQRGMAKPEYLLHQQDTTDEIRGFKPDMNPALREVLEALEDEAYVVNDDVVVEDISKKTQLQGDNYGEEEKEDDIFAQLLGSGEAKDEDEFEDEFDEWDIDNVENFEDENYVKEMAQFDNIENLEDLENIDYQADVRRFQKDNSILEKHNSDDEFSNAGLDSVNPSEEEDVLGELPSIQDKSKTGKKKRKSRQKKGAMSDVSGFSMSSSAIARTETMTVLDDQYDQIINGYENYEEELEEDEEQNYQPFDMSAERSDFESMLDDFLDNYELESGGRKLAKKDKEIERLKEAADEVSKGKLSQRRNRERQEKKKLEKVTNTLSSLKF
For the molecule B2, the binding result in test [4] is recorded as “binds”.

B3: Tsr1 (protein, UniProt Q07381 1-788)
chain: MAGHSHRSSLKNGHKSYKSKHASKGALKRLYKGKVEKEPVGTGKPDKQVSKLQRKNKAKQLRAQRILDSIENRKLFEGKNGAAKIITIVPLVNDLDPLDILYKLLKCADDEGIMVQEVDSKRIFNVHIKKFKSNLKIIIPDMTNFLNILDCAKVADFVVFGLSGVQEVDEEFGEQIIRALELQGIASYIGVISNLSAVHEKEKFQLDVKQSLESYFKHFFPSEERVYNLEKNSDALNVLRTLCQRLPRSINWRDNRGYVVADFVDFVETSPDSGDLVIEGTVRGIGFNANRLVHIPDFGDFQLNKIEKISESSQKRKIIKEKATDSLSLELDLQTVFESNMNRDTLDEYAPEGTEDWSDYDEDFEYDGLTTARYDDHGFLPGREQTSKKAAVPKGTSDYQAKWYLDDVIDANEEEEAEQTNGKDETMMEIDDEMMVEQDNEEVAGDEEYDIEDNEGFEELSPEEEERQLREFRDMEKEDREFPDEIELEPSESAIERLKRYRGLKNLYNCDWQVDEKDPSSPAEWKRLLRIGNYKNTKNRIIKETKNEAQAIAGDRIRMFIRFPKFLLEKIQDPKQLLFAVYGLLLHEHKNAVVNFSLQRWEQYDKPVPSQEPIVVQYGVRRYTIQPLFSQGSNSPNNVHKYERFLHPDTVSVATCIAPVDFTQSPAIFFKPSPTDAKNIELIGHGTFLNADHSRILAKRAILTGHPFRFHKTVVTVRYMFFRPEDVEWFKSIPLFTKSGRSGFIKESLGTHGYFKATFDGKLSAQDVVAMSLYKRMWPMPSLPWNGM
For B3, the binding result in test [5], in test [6], in test [7] and in test [8] was “binds” each time.
